Experimental data from publication PMC10100970.

Tested on: BysR (Burkholderia sp. strain JP2-270)
Experiment: EMSA
Details: EMSA/gel shift binding buffer (Beyotime GS005, composition and pH not stated), 20 min at room temperature in darkness, 6% native polyacrylamide gel, 100 V 4 h; recombinant protein; label: 5'-Cy5 on strand 1; letters put together from the description

Sequence	binding result
CCTCTGTTCAGTTCGATGCGAAACCGCGTGCGGGGACGACGGCGGCGGCCAAGCCGCGGTCGCATTGAGTGGCGATCGTTACCAATGCCCCTGCAAGAAGCTGAAACGTCCATTTCAGTCATTGAGCGTTGCTGGGTGAAAACGTGCTGCCGCCGAATGCACTGAAGGCCGGAACTGGAAAACCCGGCACCGGCCCGGAGCGGGCACGTTCCCGGCGGATTCAACGAAAAAATCACGATGAAAAAATGAAACTATCCTTTCCATTGAATTTTATCCACGAATACCCCAGCCGCGTATGATAGCGGCGATTTAAAATATCTGCATTTATCCTGTAATTAGTTTTTTAGCCACGCCGCTTGCAGACCAAAAATCAACAAATCTGCAAGCCGTTCACGAACAAAATTCTGGCAGGCCAGATAAATCTGGCCTTTGTTTACCACGAAATTTTGTAATAGTCACCCGAGCACCGCATACCATGGATTTTCGTCCAAGAGGCCTTATTCGAGAGAAGAATCGGCGATTTTCATCACGTC (double strand) [probe 3 (ambR1 promoter -160 to -692)]	binds
CGATTTTCATCACGTCACCACCGCTCACCGACGTGGCCTCAAGCACTTTCCTCCGGACATTGTTTCGATTTGATAAACGATCGATTCAATCTTCGTGATGGAAAAGCACAATATTCGCCGCCTACTTTCGGCAGCCCATTGTCGATTACACCTTCAGGCGATAAAAAT (double strand) [probe 1 (ambR1 promoter -677 to -844)]	no binding
CTCCTTGTTTCCTTGTTGTGCGTGCTTGAGGACGGCGGCGCAACGCCAGCGCGGGCGAGCCGGCGCGGTTTGCGCGGCGCGCGTTTCGTCGCGCGTTCTCGCATTGCACGCGCCGATGTGTTCGGCTCGCGCGAAACGGCGGCGCGCCGTGCTCCTCTGTTCAGTTCGATGCGAAACCGCGTGCGGGGACGACGGCGGCGGCCAAGCCGCGGTCGCATTGAGTGGCGATCGTTACCAATGCCCCTGCAAGAAGCTGAAACGTCCATTTCAGTCATTGAGCGTTGCTGGGTGAAAACGTGCTGCCGCCGAATGCACTGAAGGCCGGAACTG (double strand) [probe 2 (ambR1 promoter -7 to -336)]	no binding

The exact form of at least one protein or probe is not confirmed. Negatives hold for the conditions tested.
